One assay addresses Myc-Gli2^WT (mouse) (UniProt Q0VGT2). Briefly: co-IP; Flag-Sufu coimmunoprecipitated with Myc-Gli2 variants; cells not given; Western blot.
In the next assay the target is Myc-Ci^-PKA (Drosophila) (UniProt P19538). As to the kind of experiment: co-IP; S2R+ cells transfected with Myc-Ci^-PKA variants and HA-Sufu; lysates immunoprecipitated with tag antibody and protein A-Sepharose, Western blot.

The chains behind the UniProt entries cited, without tags or fusion partners. Where a name states a change or a piece, a line headed by the entry shows the natural chain unless it says otherwise. A line that says so, or that is headed by a name, gives the form on record, which may keep a tag or linker.
UniProt Q0VGT2: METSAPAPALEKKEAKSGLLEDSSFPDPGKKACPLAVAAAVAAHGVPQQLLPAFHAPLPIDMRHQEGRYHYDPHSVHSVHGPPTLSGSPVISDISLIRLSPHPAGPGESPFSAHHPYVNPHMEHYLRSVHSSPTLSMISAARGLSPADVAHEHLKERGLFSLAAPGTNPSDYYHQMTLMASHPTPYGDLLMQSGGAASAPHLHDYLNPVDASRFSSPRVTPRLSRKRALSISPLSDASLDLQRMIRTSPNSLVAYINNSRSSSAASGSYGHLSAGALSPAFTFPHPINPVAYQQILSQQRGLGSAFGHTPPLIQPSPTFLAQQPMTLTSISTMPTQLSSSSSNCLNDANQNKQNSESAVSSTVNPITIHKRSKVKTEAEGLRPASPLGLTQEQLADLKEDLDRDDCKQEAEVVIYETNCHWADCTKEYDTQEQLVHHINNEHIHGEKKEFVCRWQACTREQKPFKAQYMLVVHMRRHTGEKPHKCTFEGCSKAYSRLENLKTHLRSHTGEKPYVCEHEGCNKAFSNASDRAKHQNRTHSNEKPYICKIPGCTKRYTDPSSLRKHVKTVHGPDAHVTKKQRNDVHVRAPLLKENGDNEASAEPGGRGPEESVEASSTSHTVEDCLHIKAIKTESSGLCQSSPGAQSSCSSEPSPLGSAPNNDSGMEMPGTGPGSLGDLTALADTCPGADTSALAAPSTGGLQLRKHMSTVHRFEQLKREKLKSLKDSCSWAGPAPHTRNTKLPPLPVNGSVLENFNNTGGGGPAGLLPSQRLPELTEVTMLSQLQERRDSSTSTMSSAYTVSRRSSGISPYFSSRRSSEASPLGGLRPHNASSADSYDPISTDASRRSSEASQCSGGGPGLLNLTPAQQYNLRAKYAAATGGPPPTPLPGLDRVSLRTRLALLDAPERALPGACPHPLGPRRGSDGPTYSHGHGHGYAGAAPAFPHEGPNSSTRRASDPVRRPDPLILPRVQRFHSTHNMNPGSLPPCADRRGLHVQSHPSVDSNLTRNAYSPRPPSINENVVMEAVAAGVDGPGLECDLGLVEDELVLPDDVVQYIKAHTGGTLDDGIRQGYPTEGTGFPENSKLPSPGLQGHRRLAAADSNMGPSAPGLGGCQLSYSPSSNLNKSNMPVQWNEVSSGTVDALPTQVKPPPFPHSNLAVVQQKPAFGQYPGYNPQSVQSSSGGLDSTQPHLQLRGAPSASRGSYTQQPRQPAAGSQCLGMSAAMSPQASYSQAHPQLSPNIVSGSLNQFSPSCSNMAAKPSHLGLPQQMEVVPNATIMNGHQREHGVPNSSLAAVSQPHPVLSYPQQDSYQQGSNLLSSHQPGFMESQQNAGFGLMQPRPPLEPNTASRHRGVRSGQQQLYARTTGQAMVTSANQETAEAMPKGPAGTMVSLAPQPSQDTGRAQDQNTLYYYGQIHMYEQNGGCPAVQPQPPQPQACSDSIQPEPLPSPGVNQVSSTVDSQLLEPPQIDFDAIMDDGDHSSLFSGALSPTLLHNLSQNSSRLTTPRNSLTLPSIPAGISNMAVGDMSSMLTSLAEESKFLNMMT
UniProt P19538: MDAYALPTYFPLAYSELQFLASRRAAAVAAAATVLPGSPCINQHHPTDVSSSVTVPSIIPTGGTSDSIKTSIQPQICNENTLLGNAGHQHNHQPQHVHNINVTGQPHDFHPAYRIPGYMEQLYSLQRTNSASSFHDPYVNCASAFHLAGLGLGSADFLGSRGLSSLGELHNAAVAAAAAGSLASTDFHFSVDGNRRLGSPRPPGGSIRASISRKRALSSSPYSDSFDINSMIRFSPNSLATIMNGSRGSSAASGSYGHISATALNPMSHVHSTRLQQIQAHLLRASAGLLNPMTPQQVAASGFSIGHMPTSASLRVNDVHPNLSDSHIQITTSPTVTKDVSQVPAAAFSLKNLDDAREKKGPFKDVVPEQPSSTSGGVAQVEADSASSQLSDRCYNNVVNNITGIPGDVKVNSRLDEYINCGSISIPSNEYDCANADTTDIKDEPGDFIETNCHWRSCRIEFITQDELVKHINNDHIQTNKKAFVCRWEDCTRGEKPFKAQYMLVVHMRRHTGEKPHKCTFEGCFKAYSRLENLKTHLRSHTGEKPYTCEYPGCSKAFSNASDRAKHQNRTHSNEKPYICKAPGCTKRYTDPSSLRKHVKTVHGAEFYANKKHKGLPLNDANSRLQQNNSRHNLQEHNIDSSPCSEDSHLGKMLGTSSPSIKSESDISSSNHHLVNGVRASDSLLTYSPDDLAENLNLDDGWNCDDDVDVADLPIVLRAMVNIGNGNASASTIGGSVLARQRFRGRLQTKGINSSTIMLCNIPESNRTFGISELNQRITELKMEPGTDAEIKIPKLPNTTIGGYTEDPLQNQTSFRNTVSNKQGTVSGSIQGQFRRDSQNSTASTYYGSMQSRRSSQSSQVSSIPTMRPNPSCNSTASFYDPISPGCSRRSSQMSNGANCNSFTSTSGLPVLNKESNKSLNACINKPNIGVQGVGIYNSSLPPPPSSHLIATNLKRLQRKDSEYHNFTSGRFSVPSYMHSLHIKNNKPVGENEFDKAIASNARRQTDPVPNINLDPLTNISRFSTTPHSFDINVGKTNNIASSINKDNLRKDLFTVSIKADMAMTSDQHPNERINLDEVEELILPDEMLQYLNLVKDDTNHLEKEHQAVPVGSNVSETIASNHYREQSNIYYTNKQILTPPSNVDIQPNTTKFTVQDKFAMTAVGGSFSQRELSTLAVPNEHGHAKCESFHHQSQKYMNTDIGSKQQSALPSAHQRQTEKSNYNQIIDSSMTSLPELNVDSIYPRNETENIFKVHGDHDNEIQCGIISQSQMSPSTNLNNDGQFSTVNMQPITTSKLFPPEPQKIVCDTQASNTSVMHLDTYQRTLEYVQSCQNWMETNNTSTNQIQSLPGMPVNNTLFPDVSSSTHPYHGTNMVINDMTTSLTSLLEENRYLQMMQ
Myc-Ci^-PKA (P19538, form named): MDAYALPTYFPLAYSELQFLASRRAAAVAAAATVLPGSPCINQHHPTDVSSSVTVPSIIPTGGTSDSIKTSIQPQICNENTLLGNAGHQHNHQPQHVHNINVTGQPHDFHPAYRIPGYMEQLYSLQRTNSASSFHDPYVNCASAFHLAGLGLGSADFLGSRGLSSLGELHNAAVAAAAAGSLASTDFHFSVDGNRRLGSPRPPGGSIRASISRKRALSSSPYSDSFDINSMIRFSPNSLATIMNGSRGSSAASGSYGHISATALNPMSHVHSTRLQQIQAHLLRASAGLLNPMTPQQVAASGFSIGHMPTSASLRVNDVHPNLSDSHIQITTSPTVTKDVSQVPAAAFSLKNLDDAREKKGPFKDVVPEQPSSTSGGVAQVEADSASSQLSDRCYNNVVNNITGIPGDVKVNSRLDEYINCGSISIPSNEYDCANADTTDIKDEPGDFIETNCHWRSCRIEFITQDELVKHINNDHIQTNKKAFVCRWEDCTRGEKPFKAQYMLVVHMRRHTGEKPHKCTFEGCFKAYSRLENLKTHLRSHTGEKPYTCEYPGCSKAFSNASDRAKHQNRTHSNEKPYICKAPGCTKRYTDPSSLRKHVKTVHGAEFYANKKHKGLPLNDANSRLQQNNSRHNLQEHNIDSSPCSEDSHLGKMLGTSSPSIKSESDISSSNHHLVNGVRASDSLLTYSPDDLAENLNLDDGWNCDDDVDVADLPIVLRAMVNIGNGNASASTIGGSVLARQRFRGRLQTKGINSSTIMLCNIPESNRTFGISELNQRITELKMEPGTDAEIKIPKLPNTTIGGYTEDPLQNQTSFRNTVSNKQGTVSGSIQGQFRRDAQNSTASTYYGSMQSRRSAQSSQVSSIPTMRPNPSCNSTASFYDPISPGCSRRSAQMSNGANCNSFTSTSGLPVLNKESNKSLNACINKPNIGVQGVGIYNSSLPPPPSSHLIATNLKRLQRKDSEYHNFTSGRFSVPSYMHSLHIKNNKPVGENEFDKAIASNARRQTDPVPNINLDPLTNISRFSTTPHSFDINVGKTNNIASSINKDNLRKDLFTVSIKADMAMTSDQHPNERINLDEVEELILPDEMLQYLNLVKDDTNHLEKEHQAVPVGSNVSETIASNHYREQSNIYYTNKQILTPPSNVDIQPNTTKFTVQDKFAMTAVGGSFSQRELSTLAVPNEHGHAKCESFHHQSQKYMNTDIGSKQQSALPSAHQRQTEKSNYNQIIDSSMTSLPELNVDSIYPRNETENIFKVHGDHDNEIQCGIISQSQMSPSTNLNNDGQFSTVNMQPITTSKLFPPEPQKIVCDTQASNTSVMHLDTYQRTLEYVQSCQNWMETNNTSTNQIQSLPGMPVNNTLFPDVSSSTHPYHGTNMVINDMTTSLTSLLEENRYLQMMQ

No constants are given. Whether binding was seen depends on the method and setting. In cells and extracts the contact can be indirect. Some results given as binding are weak or reduced against the parent protein; the word gives no strength. Sequences can lack the tags named with a protein.

The text below walks through data of article PMC9445324.

B1: Flag-Sufu (protein, UniProt Q9Z0P7 1-484)
chain: MAELRPSVAPGPAAPPASGPSAPPAFASLFPPGLHAIYGECRRLYPDQPNPLQVTAIVKYWLGGPDPLDYVSMYRNMGSPSANIPEHWHYISFGLSDLYGDNRVHEFTGTDGPSGFGFELTFRLKRETGESAPPTWPAELMQGLARYVFQSENTFCSGDHVSWHSPLDNSESRIQHMLLTEDPQMQPVRTPFGVVTFLQIVGVCTEELHSAQQWNGQGILELLRTVPIAGGPWLITDMRRGETIFEIDPHLQERVDKGIETDGSNLSGVSAKCAWDDLSRPPEDEEDSRSICLGTQPRRLSGKDTEQIRETLRRGLEINSKPVLPPINSQRQNGLTHDRAPSRKDSLGSDSSTAIIPHELIRTRQLESVHLKFNQESGALIPLCLRGRLLHGRHFTYKSITGDMAITFVSTGVEGAFATEEHPYAAHGPWLQILLTEEFVEKMLEDLEDLTSPEEFKLPKEYSWPEKKLKVSILPDVVFDSPLH
Regarding B1, in the assay with Myc-Gli2^WT (mouse), the binding result is “binds”.

B2: HA-Sufu (protein, UniProt Q9VG38 1-468)
chain: MAEANLDKKPEVKPPPGLKAIIDHLGQVYPNQPNPLQVTTLLKYWLGGQDPLDYISMYNYPGDVDRNVPPHWHYISFGLSDLHGDERVHLREEGVTRSGMGFELTFRLAKTEIELKQQIENPEKPQRPPTWPANLLQAIGRYCFQTGNGLCFGDNIPWRKSLDGSTTSKLQNLLVAQDPQLGCIDTPTGTVDFCQIVGVFDDELEQASRWNGRGVLNFLRQDMQTGGDWLVTNMDRQMSVFELFPETLLNLQDDLEKQGSDLAGVNADFTFRELKPTKEVKEEVDFQALSEKCANDENNRQLTDTQMKREEPSFPQSMSMSSNSLHKSCPLDFQAQAPNCISLDGIEITLAPGVAKYLLLAIKDRIRHGRHFTFKAQHLALTLVAESVTGSAVTVNEPYGVLGYWIQVLIPDELVPRLMEDFRSAGLDEKCEPKERLELEWPDKNLKLIIDQPEPVLPMSLDAAPLKM
For the molecule B2, in the assay with Myc-Ci^-PKA (Drosophila), the binding result is “binds”.
